Source: PubChem BioAssay AID332 (DTP/NCI, 2004)
The list shows only some results of the screen, not a fair sample: it gathers some chemical classes. Not every dose and run of a compound is shown. T/C is the treated group as % of the vehicle group. Some entries show no survivor count and are marked so; the dose need not have been tolerated. Schedules are NCI's codes, read here as Q, the interval in days (D) or hours (H), X, the number of doses.

Tested on: mice, ADJ-PC-20 plasma cell tumor sc, T/C %
Test: NCI In Vivo Anticancer Drug Screen. Data for tumor model ADJ-PC-20 Plasma Cell (subcutaneous) in unknown mice
Details: T/C endpoint: mean tumor weight, schedule: Q01DX010 (ip), vehicle: saline, evaluation day not shown, higher T/C = larger tumour
Experimental: The antitumor activity of compounds was measured in mice bearing transplantable tumors. Survival or tumor size were measured and the results are expressed as the measurement made in the treated group (T) divided by the measurement made in the vehicle treated control group (C). The tumor model used in this assay is ADJ-PC-20 Plasma Cell (subcutaneous) in unknown mice

Compound: CN(CCCl)CCCl
- T/C (dose: 0.03 mg/kg/injection): 98 % of control [survivor count not shown]
- T/C (dose: 0.06 mg/kg/injection): 130 % of control [survivor count not shown]
- T/C (dose: 0.12 mg/kg/injection): 98 % of control [survivor count not shown]
- T/C (dose: 0.25 mg/kg/injection): 54 % of control [survivor count not shown]
